This continues a long series; more values of the same kind are listed elsewhere.
Test: Assay (I): Determination of Solubility (96-well plate, pH 3.0-11.0, organic solvent 0-70% w/w, UV absorption at 280 nm)
Assay type: physicochemical
Conditions: MeCN 31.8% w/w, Method 1
Experimental: Assay (I): Determination of Solubility
96-Well Plate Preparation
96-well plates containing target peptide in a solid form were prepared in one of two ways:
Method 1 (evaporation): Addition of 100 μl stock solution of said peptide at a concentration of 4-6 mg/ml to each well of a 96-well half area plate (150 μl well size). Subsequently the solvent was evaporated by applying a vacuum until the solvent was completely removed.
Method 2 (precipitation): Addition of a certain volume of a stock solution of said peptide containing to each well of a 96-well half area plate followed by the addition of a certain volume of concentrated phosphoric acid to obtain a pH of 4.6 followed by addition of a certain volume of ethanol resulting in a final ethanol concentration of 20% v/v. Subsequently the plate was stored at 4° C. for 1 h and then centrifuged at 4,000 rpm for 20 min. Finally the supernatant was removed. The concentration of the stock solution was chosen in a way that the final amount of peptide after supernatant removal was >0.4 mg per well.
In both cases the stock solution was prepared by adding de-ionized water to a certain amount of powder of said peptide followed by a stepwise addition of small amounts of a concentrated sodium hydroxide solution until said peptide was completely in solution.
To determine solubility of a target peptide at different pH and organic solvent concentrations, two different buffer systems were used in independent experiments to cover the whole range from pH 3.0 to pH 11.0. Buffer system 1 covers pH 3.0-7.5 and buffer system 2 covers pH 7.5-11.0. For each buffer system 96 different solvent compositions were premixed in the following way: • 1. A low pH buffer (adjusted to either pH 3.0 or pH 7.5) and a high pH buffer (adjusted to either pH 7.5 or pH 11.0) were mixed at 8 different ratios to obtain values between pH 3.0 and pH 7.5 or pH 7.5 and pH 11.0, respectively. The total volume after mixing was 300 μl. • 2. 12 different amounts of organic solvent were then added to these buffers to obtain organic solvent (e.g. ethanol) concentrations between 0 and 70% w/w. • 3. Water was then added to obtain a total weight of 1.0 g of solvent in each well.
After preparing the 96 different solvent systems, 100 μl of each system was transferred to the 96-well plate containing the solid form of the target peptide (prepared as described in the section “96-well plate preparation”). The plate was then stored at a given temperature (between 5° C. and 70° C.) for a given time on a rotating shaker set to 400 rpm. At regular time intervals the plate was centrifuged (4,000 rpm for 10 min) and a 10 μl sample was taken from each well. The samples were then analysed by UV absorption at 280 nm for peptide quantification. Peptide concentration results are given as UV absorption at 280 nm of the sample subtracted UV absorption at 280 nm of a well comprising 10 μl water.
The buffers used were as follows: • Buffer system 1 (for the pH range from pH 3.0-7.5)
• Buffer system 2 (for the pH ranae from pH 7.5-11.0)
Solubility of liraglutide was determined using Assay (I) described herein. Liraglutide was prepared using Method 1 (evaporation) or Method 2 (precipitation) as described in subsection “96-well plate preparation”.

Peptide concentration after 24 h (pH 3.0, 5° C.): 0.5 mg/mL
Peptide concentration after 5 min (pH 3.0, 70° C.): 0.7 mg/mL
Peptide concentration after 180 min (pH 3.0, 70° C.): 1.3 mg/mL
Peptide concentration after 5 min (pH 3.0, RT): 0.4 mg/mL
Peptide concentration after 180 min (pH 3.0, RT): 0.2 mg/mL
Peptide concentration after 24 h (pH 3.0, RT): 0.2 mg/mL
Peptide concentration after 5 min (pH 3.6, 5° C.): 0.1 mg/mL
Peptide concentration after 180 min (pH 3.6, 5° C.): 0.3 mg/mL
Peptide concentration after 24 h (pH 3.6, 5° C.): 0.2 mg/mL
Peptide concentration after 5 min (pH 3.6, 70° C.): 0.2 mg/mL
Peptide concentration after 180 min (pH 3.6, 70° C.): 0.2 mg/mL
Peptide concentration after 5 min (pH 3.6, RT): 0.4 mg/mL
Peptide concentration after 180 min (pH 3.6, RT): 0.2 mg/mL
Peptide concentration after 24 h (pH 3.6, RT): 0.1 mg/mL
Peptide concentration after 5 min (pH 4.3, 5° C.): 0.2 mg/mL
Peptide concentration after 180 min (pH 4.3, 5° C.): 0.3 mg/mL
Peptide concentration after 24 h (pH 4.3, 5° C.): 0.2 mg/mL
Peptide concentration after 5 min (pH 4.3, 70° C.): 0.2 mg/mL
Peptide concentration after 180 min (pH 4.3, 70° C.): 0.2 mg/mL
Peptide concentration after 5 min (pH 4.3, RT): 0.2 mg/mL
Peptide concentration after 180 min (pH 4.3, RT): 0.1 mg/mL
Peptide concentration after 24 h (pH 4.3, RT): 0.1 mg/mL
Peptide concentration after 5 min (pH 4.9, 5° C.): 0.1 mg/mL
Peptide concentration after 180 min (pH 4.9, 5° C.): 0.2 mg/mL
Peptide concentration after 24 h (pH 4.9, 5° C.): 0.1 mg/mL
Peptide concentration after 5 min (pH 4.9, 70° C.): 0.2 mg/mL
Peptide concentration after 180 min (pH 4.9, 70° C.): 0.1 mg/mL
Peptide concentration after 5 min (pH 4.9, RT): 0.1 mg/mL
Peptide concentration after 180 min (pH 4.9, RT): 0.1 mg/mL
Peptide concentration after 24 h (pH 4.9, RT): 0.0 mg/mL
Peptide concentration after 5 min (pH 5.6, 5° C.): 0.3 mg/mL
Peptide concentration after 180 min (pH 5.6, 5° C.): 0.3 mg/mL
Peptide concentration after 24 h (pH 5.6, 5° C.): 0.1 mg/mL
Peptide concentration after 5 min (pH 5.6, 70° C.): 0.7 mg/mL
Peptide concentration after 180 min (pH 5.6, 70° C.): 0.2 mg/mL
Peptide concentration after 5 min (pH 5.6, RT): 0.8 mg/mL
Peptide concentration after 180 min (pH 5.6, RT): 0.3 mg/mL
Peptide concentration after 24 h (pH 5.6, RT): 0.1 mg/mL
Peptide concentration after 5 min (pH 6.2, 5° C.): 1.7 mg/mL
Peptide concentration after 180 min (pH 6.2, 5° C.): 1.1 mg/mL
Peptide concentration after 24 h (pH 6.2, 5° C.): 0.2 mg/mL
Peptide concentration after 5 min (pH 6.2, 70° C.): 1.4 mg/mL
Peptide concentration after 180 min (pH 6.2, 70° C.): 0.8 mg/mL
Peptide concentration after 5 min (pH 6.2, RT): 1.2 mg/mL
Peptide concentration after 180 min (pH 6.2, RT): 0.6 mg/mL
Peptide concentration after 24 h (pH 6.2, RT): 0.1 mg/mL
Peptide concentration after 5 min (pH 6.9, 5° C.): 0.9 mg/mL
Peptide concentration after 180 min (pH 6.9, 5° C.): 3.0 mg/mL
Peptide concentration after 24 h (pH 6.9, 5° C.): 2.7 mg/mL
Compound: CCCCCCCCCCCCCCCC(=O)N[C@@H](CCC(=O)NCCCC[C@H](NC(=O)[C@H](C)NC(=O)[C@H](C)NC(=O)[C@H](CCC(N)=O)NC(=O)CNC(=O)[C@H](CCC(=O)O)NC(=O)[C@H](CC(C)C)NC(=O)[C@H](Cc1ccc(O)cc1)NC(=O)[C@H](CO)NC(=O)[C@H](CO)NC(=O)[C@@H](NC(=O)[C@H](CC(=O)O)NC(=O)[C@H](CO)NC(=O)[C@@H](NC(=O)[C@H](Cc1ccccc1)NC(=O)[C@@H](NC(=O)CNC(=O)[C@H](CCC(=O)O)NC(=O)[C@H](C)NC(=O)[C@@H](N)Cc1cnc[nH]1)[C@@H](C)O)[C@@H](C)O)C(C)C)C(=O)N[C@@H](CCC(=O)O)C(=O)N[C@@H](Cc1ccccc1)C(=O)N[C@H](C(=O)N[C@@H](C)C(=O)N[C@@H](Cc1c[nH]c2ccccc12)C(=O)N[C@@H](CC(C)C)C(=O)N[C@H](C(=O)N[C@@H](CCCNC(=N)N)C(=O)NCC(=O)N[C@@H](CCCNC(=N)N)C(=O)NCC(=O)O)C(C)C)[C@@H](C)CC)C(=O)O [liraglutide, Arg34,Lys26-(N-epsilon-(gamma-L-glutamyl(N-alfa-hexadecanoyl)))-GLP-1(7-37)]

Reference: patent publication US20210261642A1, “SOLUBILITY OF GLP-1 PEPTIDE” (Novo Nordisk A/S, priority 2017, published 2021)
